These are yes or no findings as the source states them, for the method shown. Some results given as binding are weak or reduced against the parent protein; the word gives no strength.
Experiments:
[1] = target: mouse SF-1 LBD A270W, 6xHis fusion protein (mouse) (UniProt P33242); experiment: AlphaScreen, TIF2 motif, with 1.25 uM 12PE
[2] = target: mouse SF-1 LBD L348W, 6xHis fusion protein (mouse) (UniProt P33242); experiment: AlphaScreen, TIF2 motif, with 1.25 uM 12PE
[3] = target: purified mouse LRH-1 (mouse) (UniProt P45448); experiment: AlphaScreen, purified mouse LRH-1 and TIF2 motif, with or without 1.25 uM phospholipids

The chains behind the UniProt entries cited, without tags or fusion partners. Residues count along the entry.
UniProt P45448, residues 313-560: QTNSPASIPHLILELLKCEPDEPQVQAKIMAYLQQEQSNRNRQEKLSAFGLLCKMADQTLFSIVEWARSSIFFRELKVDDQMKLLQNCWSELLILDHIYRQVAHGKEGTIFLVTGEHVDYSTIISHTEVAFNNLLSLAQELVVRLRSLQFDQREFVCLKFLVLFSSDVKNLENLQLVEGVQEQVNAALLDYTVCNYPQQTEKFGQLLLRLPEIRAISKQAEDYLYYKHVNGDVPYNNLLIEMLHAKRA

Measured: binding

QEPVSPKKKENALLRYLLDKDDTKD (N-terminal biotinylation) [TIF2-3 peptide (third LxxLL motif from the co-activator TIF2), N-terminally biotinylated]
binds: all assays above

Reference: patent publication US20070026059A1, “Ligands for orphan nuclear hormone receptor steroidogenic factor-1 (SF-1)” (priority 2005, published 2007)
